From paper PMC7062184, “A lipoprotein lipase–GPI-anchored high-density lipoprotein–binding protein 1 fusion lowers triglycerides in mice: Implications for managing familial chylomicronemia syndrome” (The Journal of Biological Chemistry, 2019)
Results are given in words; binding and its absence hold for the method and conditions named. Sequences can lack the tags named with a protein.

B1: LPL(28–475)-(G4S)4-hGPIHBP1(21–151)-FLAG-His6-Avi (protein)
chain: ADQRRDFIDIESKFALRTPEDTAEDTCHLIPGVAESVATCHFNHSSKTFMVIHGWTVTGMYESWVPKLVAALYKREPDSNVIVVDWLSRAQEHYPVSAGYTKLVGQDVARFINWMEEEFNYPLDNVHLLGYSLGAHAAGIAGSLTNKKVNRITGLDPAGPNFEYAEAPSRLSPDDADFVDVLHTFTRGSPGRSIGIQKPVGHVDIYPNGGTFQPGCNIGEAIRVIAERGLGDVDQLVKCSHERSIHLFIDSLLNEENPSKAYRCSSKEAFEKGLCLSCRKNRCNNLGYEINKVRAKRSSKMYLKTRSQMPYKVFHYQVKIHFSGTESETHTNQAFEISLYGTVAESENIPFTLPEVSTNKTYSFLIYTEVDIGELLMLKLKWKSDSYFSWSDWWSSPGFAIQKIRVKAGETQKKVIFCSREKVSHLQKGKAPAVFVKCHDKSLNKKSGGGGGSGGGGSGGGGSGGGGSQTQQEEEEEDEDHGPDDYDEEDEDEVEEEETNRLPGGRSRVLLRCYTCKSLPRDERCNLTQNCSHGQTCTTLIAHGNTESGLLTTHSTWCTDSCQPITKTVEGTQVTMTCCQSSLCNVPPWQSSRVQDPTG
modifications: biotin on the C-terminal AviTag (BirA) in ELISA and SPR
B2: His6-TEV-LPL (N-terminally His6-tagged human lipoprotein lipase) (enzyme)
chain: ADQRRDFIDIESKFALRTPEDTAEDTCHLIPGVAESVATCHFNHSSKTFMVIHGWTVTGMYESWVPKLVAALYKREPDSNVIVVDWLSRAQEHYPVSAGYTKLVGQDVARFINWMEEEFNYPLDNVHLLGYSLGAHAAGIAGSLTNKKVNRITGLDPAGPNFEYAEAPSRLSPDDADFVDVLHTFTRGSPGRSIGIQKPVGHVDIYPNGGTFQPGCNIGEAIRVIAERGLGDVDQLVKCSHERSIHLFIDSLLNEENPSKAYRCSSKEAFEKGLCLSCRKNRCNNLGYEINKVRAKRSSKMYLKTRSQMPYKVFHYQVKIHFSGTESETHTNQAFEISLYGTVAESENIPFTLPEVSTNKTYSFLIYTEVDIGELLMLKLKWKSDSYFSWSDWWSSPGFAIQKIRVKAGETQKKVIFCSREKVSHLQKGKAPAVFVKCHDKSLNKKSG
notes: human lipoprotein lipase; also called His6-LPL; hLPL; not shown: His6, N-terminal, kept

What was measured:
[1] = molecular target: LPL(28–475)-(G4S)4-hGPIHBP1(21–151)-FLAG-His6-Avi (human); test: SEC; analytical size-exclusion chromatography of the purified LPL–GPIHBP1 fusion protein; ~75 kDa; both purified
[2] = molecular target: His6-TEV-LPL (N-terminally His6-tagged human lipoprotein lipase) (human); test: SEC; His6-LPL, GPIHBP1 and LMF1 co-transfected 3:1:1 in HEK293T; complex captured from the medium by Ni-affinity, then Superdex 200 in 10 mM Tris pH 7.5, 300 mM NaCl; eluted at ~75 kDa; both purified

| Binder | binding [1] | binding [2] |
| --- | --- | --- |
| B1 | no binding | – |
| B2 | – | no binding |
